The chains are these.
B1: tRNA (parent)
chain: GUUCCGUUGGCGUAAUGGUAACGCGUCUCCCUCCUAAGGAGAAGACUGCGGGUUCGAGUCCCGUACGGAACG

Consider 167 variants from the RNAGym collection of RNA variant scans (doi:10.1126/science.aae0568).

This sample is rich in variants without activity.

This data set covers variants of B1. Nature of the data set: yeast fitness relative to wild type (ratio to wild type); higher = fitter; tRNA-Arg(CCU), competitive growth, 37 C, YPD. In outline:
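For this measurement, the tRNA-Arg(CCU) gene was varied by chemical synthesis at a 3% per-site mutation rate across 69 sites, and each variant was placed at the native genomic locus in Saccharomyces cerevisiae. The pooled strains went through a 24-hour competition in YPD at 37°C in six parallel replicates, with amplicons from start and end populations read by 100-nucleotide paired-end sequencing. Darwinian fitness relative to wild type followed from the change in each genotype's frequency. Genotypes needed ≥ 100 starting reads, and estimates < 0.5 were set to 0.5.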
In the case of U8C U19G C34U G52C, the yeast fitness is no more than 0.5.
To C5A C34G A43U belongs no more than 0.5; to A14U A15G C31A C34G C61U, no more than 0.5.
To U16A A43C G67C belongs no more than 0.5; to G23C U26C C46G C55U, no more than 0.5.
To C5U U7C U26C U28C C29G C34A belongs 0.659; to U13A U26G C27A G39C A42G, no more than 0.5.
U3A C22G C24U C33A G58A: the yeast fitness was no more than 0.5.
To C5U A14G U26C belongs 0.662; to U8G C29G G38C G44A C55U C62U, no more than 0.5.
For C31G U35C C66U, the yeast fitness is 0.558.
For the variant G12A G25A G51C, the yeast fitness is no more than 0.5.
To A14U C22G G23C U32C A40C C60U G68C belongs no more than 0.5; to C27U C30U C34G A37C, no more than 0.5; to C22U C24A U26C G39C, no more than 0.5.
To U2C A45G C60G C62U belongs no more than 0.5.
To C5U C31U C61G belongs 0.549; to C30U C33G C55U G68U, no more than 0.5.
Consider C30U C34U C46A C61U, for which the yeast fitness was no more than 0.5.
Take U2A G10U U16A G56C A57G C62U: the yeast fitness was no more than 0.5.
To U3G C30A A40C C46U C60U C66U belongs no more than 0.5; to C5U A21U C30G G68A, no more than 0.5; to C24G U53C G58A, no more than 0.5.
To A21C C22G G38C A69U belongs no more than 0.5.
To A20C C61G A65U belongs no more than 0.5.
For the variant U35G A40C G63C, the yeast fitness is no more than 0.5.
To A20C C27G C49A C61U belongs no more than 0.5.
To U8C A43C C49G C61A belongs 0.693; to C4G A14C A57U C60G, no more than 0.5.
Regarding G9A C24G C34G A69U, the yeast fitness worked out at 0.533.
To U28A G41C A42U G52A belongs no more than 0.5.
For the variant U28G C34G G44C, the yeast fitness is no more than 0.5.
On to C11G U47A G51C A70U, for which the yeast fitness was no more than 0.5.
To A20U A21U A57C U64G belongs no more than 0.5; to U8C G12A C49G C60U C61G G67A, no more than 0.5.
Turning to U7A U8A C11G G56A A69U, the yeast fitness was found to be 0.548.
C24G C29U C49U: the yeast fitness was no more than 0.5.
With U13A C31A A40G U54G U59A G63A, the yeast fitness was no more than 0.5.
U2C C22G U35A A57G C62A: the yeast fitness is no more than 0.5.
With C11U G52A, the yeast fitness stood at 0.827.
To C27G U32C C62U belongs 0.62.
To U2C C4U G10C A57C A70C belongs no more than 0.5; to C24U C31G G52C A57U, no more than 0.5; to C24G A36G U53A, 0.555.
Take C5G G50A: the yeast fitness stood at 0.835.
To C5U C22G C29A A45U G58C belongs no more than 0.5.
With C24G U54G C60U G63A, the yeast fitness was no more than 0.5.
Turning to A14G A15G A45U C62U A70U, the yeast fitness was no more than 0.5.
With C11G C22G U26A C66U, the yeast fitness was no more than 0.5.
To C4G A14G G38A belongs no more than 0.5; to C11U C24G A36U A37C, no more than 0.5.
Turning to C29U A45G C46G G50A, the yeast fitness is no more than 0.5.
To G12A C24A A43G G52A A69U A70C belongs no more than 0.5; to U3A C62A C66G, no more than 0.5.
To C27G A36G G52A belongs no more than 0.5.
On to U19C G51A A57G G58A, for which the yeast fitness was no more than 0.5.
To C22U C34G A42U G48A belongs no more than 0.5; to A15U C61G A69U, no more than 0.5.
To U3C A40C C49U C61G belongs no more than 0.5.
To U2G C27G G67C belongs no more than 0.5; to C5G A15G A42C C60A, no more than 0.5.
For the variant G10A U19A C29U G41C C66U, the yeast fitness was no more than 0.5.
On to U3A A37C C55A, for which the yeast fitness is no more than 0.5.
To G18A C22G C27G C49U belongs no more than 0.5.
Regarding C4U A14G A15G C22U C46U A70U, the yeast fitness is no more than 0.5.
To U2A C5A U32C G39C C46G belongs no more than 0.5; to U8C U13G A69U, no more than 0.5; to C11A C46U A70G, 0.56.
To C22U G44C U64G belongs no more than 0.5; to C11U U19G C27U G48A, no more than 0.5.
To C5A C31G C33U belongs no more than 0.5.
Consider A14U G50A U54A, for which the yeast fitness is no more than 0.5.
To G10A C11G A36C C55G belongs no more than 0.5; to A20G U35C G50C A57U, no more than 0.5.
On to C22G G44A G67C, for which the yeast fitness is no more than 0.5.
To G6A U26A G48C C66U A69U belongs no more than 0.5; to U7C C31U A36G A43U C62G, no more than 0.5.
Consider A43C C49A A65C, for which the yeast fitness was no more than 0.5.
To C11U U13G U19A C22G G25A C66U A70U belongs no more than 0.5; to G17A C34A A57U, no more than 0.5; to U26G C60G C61U, no more than 0.5.
Consider C4U C46A C49A, for which the yeast fitness is no more than 0.5.
To C4G C11G A43C C55U belongs no more than 0.5; to C11U U54C C61U, no more than 0.5; to C11U C29G U59C, no more than 0.5.
With A21C G41A C61G, the yeast fitness was no more than 0.5.
With C31G C62A, the yeast fitness was determined as 0.607.
As for C4U U13A A14U C29U A37G C60U G68U, the yeast fitness was no more than 0.5.
As for A20U A37G, the yeast fitness was found to be 0.892.
For the variant C22U C30G C34A A37C A65U, the yeast fitness was no more than 0.5.
In the case of A14C A42G A57U, the yeast fitness is no more than 0.5.
To C4U A15C G41A G63C belongs no more than 0.5; to C34G G41C C49U C62A, no more than 0.5; to C24U G44A C60U C62A, no more than 0.5.
To C11G U19G A45C belongs no more than 0.5.
For A15C C27U U28A A40U, the yeast fitness is no more than 0.5.
To C11A A21G C34U A37G C62A belongs no more than 0.5; to C5G G6C A15G C62U A65C C66U, no more than 0.5; to U2A A36C C55A, no more than 0.5.
To A15U C22U C29U belongs no more than 0.5; to C5G C22U U32G C34U A40G C66U, no more than 0.5.
Take G17C A70G: the yeast fitness was 0.616.
To C4A C24U C60G belongs no more than 0.5; to G44C C60A, 0.572.
To C4U A15G G25A G48C C62A belongs no more than 0.5; to C4G A45G U54G, no more than 0.5; to G10C U13C G18C C27U C33G U64A G68C A70U, no more than 0.5.
For the variant C27G G48C C49G, the yeast fitness amounted to 0.503.
Turning to A20U U35C, the yeast fitness was 0.949.
For the variant C4U U7C C24U C29U C34G, the yeast fitness was no more than 0.5.
Regarding C24U A37C C60G G67C, the yeast fitness was no more than 0.5.
To G23C A42C A43C G48A C62A belongs no more than 0.5; to A14C A20U C31U G38C G67A, 0.53.
For A14U G44A G67A A70G, the yeast fitness is no more than 0.5.
To C4U A40G G63A G67A belongs no more than 0.5; to A15U U16C C27U G39A G48A, no more than 0.5.
As for C5G U53A G58A C66U, the yeast fitness is no more than 0.5.
To C11A C24G U47G belongs no more than 0.5; to C49U C55U A69C, 0.665.
Take U8A A57C: the yeast fitness is no more than 0.5.
To U2C U13C U28G U54A C62A belongs no more than 0.5; to U19G G52C C61U, no more than 0.5.
As to C30G G52C C61A, the yeast fitness is no more than 0.5.
C5U U16G A40G A42U G52A: the yeast fitness is no more than 0.5.
To C4G C11U U47A C60G C62A belongs no more than 0.5; to C24G U28C G50C, no more than 0.5; to G9A G67U, 0.863.
To U3C A37G U47C G52A C61U belongs no more than 0.5.
Consider A15U G67C, for which the yeast fitness was 0.657.
For the variant C24U G50C C61U A65U, the yeast fitness was no more than 0.5.
For the variant C24U U32G A40U, the yeast fitness turned out to be 0.513.
To C5U A21U U28C C30G A70U belongs no more than 0.5.
On to G12A A15G A36C A37G, for which the yeast fitness is no more than 0.5.
Regarding G23A A45U C60U A70G, the yeast fitness was no more than 0.5.
For A15G C34U A40U, the yeast fitness is no more than 0.5.
Take U19A G38C C62G G68C: the yeast fitness is no more than 0.5.
To C31U G41C A43C C60G G63A belongs no more than 0.5; to G6A C31G A70C, 0.553.
Turning to C29G A40C A57C, the yeast fitness was determined as 0.551.
To U2G C31U U64G A65U belongs no more than 0.5; to U2C U28A G41A A57C, no more than 0.5; to G6A A14C A42U G56A G63C U64C, no more than 0.5.
To U7C G23C G48C belongs no more than 0.5; to C5U C22U C27G A70G, no more than 0.5.
Regarding G6A U32C C46U G52A, the yeast fitness is no more than 0.5.
To C5G U26G G38C G51C belongs no more than 0.5; to C4U C62G G68A, no more than 0.5.
Regarding C11G G12A U19C A69C, the yeast fitness was no more than 0.5.
To C4A C5G A57U G68U belongs 0.575.
To A15C U28A belongs 0.622; to A36C G50A A57G A65C, no more than 0.5.
With A20U C22A C27G C34U, the yeast fitness is no more than 0.5.
As to U3G A43G G63U U64A, the yeast fitness is no more than 0.5.
For the variant C29U C31U A45U C61U C62G A69C, the yeast fitness was no more than 0.5.
To U13C U54A G67C A69U belongs no more than 0.5; to C4G G6C G18A C24U C27A U35C G41A U47C, no more than 0.5.
To C22U A37G A45U G52A C62G A70U belongs no more than 0.5; to G10A A15G A36G U47C, no more than 0.5; to U7G C22U G52A C55U, no more than 0.5.
To A15G A21C C29G C30U A45U belongs no more than 0.5; to U3A A21C G25U A43C C61A C62U G67C, no more than 0.5; to G9C G48A A69C, 0.627.
In the case of C5G A20U G38C G48A, the yeast fitness is no more than 0.5.
To U3A A20U G50A C66G belongs no more than 0.5.
To G9C C27G C33A U47A belongs no more than 0.5.
To C31G A45G belongs 0.809; to C5U U7A G23A C33G, no more than 0.5.
